Measurements published in patent US20210251883A1, “METHOD FOR PREPARING ENZYME-TREATED ZIZANIA LATIFOLIA TURCZ. EXTRACT HAVING INCREASED TRICIN CONTENT, AND COMPOSITION FOR WHITENING, WRINKLE REDUCTION, ANTI-INFLAMMATION, ANTI-ALLERGY AND MOISTURIZATION, PREPARED THEREBY” (BTC CORPORATION, priority 2018, published 2021).
At least one structure is not confirmed: it was looked up by name or label, or the drawing left a doubt.

Tests used:
SKH-1 hairless mouse = test: UVB-irradiated wrinkle-induced SKH-1 hairless mouse animal experiment; format: in vivo
From the text: The anti-wrinkle improvement and moisturizing effects were confirmed through animal experiments for the enzyme-treated extract of Zizania latifolia Turcz. prepared in the above Example 1. For the experiment, biochemical analysis equipment (Roche Ltd, Basel, Switzerland), glass teflon homogenizer (Chang shin scientific Co., Korea), microplate reader (Bio-TEK, USA), protein quantification equipment (Chemi-Doc; BIORAD, USA), a centrifuge (Hanil FLETA5, Korea), a water bath (Thermo minder taitec, Japan), and a deep freezer (Sanyo, Japan) were used. In addition, glass Teflon homogenizer (Daihan Scientific Group, Korea), UV-spectrophotometer (Shimadzu UV-1201, Japan), high-speed centrifuge (Hanil HMR-1610V, Korea), medical freezer (Sanyo, Japan)), a microplate reader (Bio-TEK), and protein quantification equipment (Chemi-Doc; BIORAD) were used. […]
The ultraviolet irradiation device (Dongseo Science, UV-1000) emits ultraviolet rays with a sunlamp that emits UVB in the cabinet, and the light source is 302 nm, and the UVB intensity is irradiated at a height of 0.3 mW/cm^2. Ultraviolet radiation dose was measured with a UV-radiometer, and after confining the mouse in a cage for ultraviolet irradiation, it was irradiated 3 times a week on the back area every other day, for a total of 10 weeks [0 week: 60 mJ/m^2 (1 M.E.D), 1 week: 120 mJ/m^2 (2 M.E.D), 2˜3 weeks: 180 mJ/m^2 (3 M.E.D), 4˜5 weeks: 240 mJ/m^2 (4 M.E.D) 5˜10 weeks: 240 mJ/m^2 (4 M.E.D)].
First, the body weight of each animal was measured to observe the change in body weight. […]

MMP-1 = test: Western blot of UVB-irradiated skin tissue, MMP-1; format: in vivo, mouse; conditions: R group, 0.05% skin application three times a week; FIG. 22
MMP-13 = test: Western blot of UVB-irradiated skin tissue, MMP-13; format: in vivo, mouse; conditions: R group, 0.05% skin application three times a week; FIG. 22

CC1=C(/C=C/C(C)=C/C=C/C(C)=C/C(=O)O)C(C)(C)CCC1 [retinoic acid]
moisture of the skin surface (SKH-1 hairless mouse; P group (0.05% skin application 3 times a week), 14 weeks, UVB, FIG. 16): maintained | SILFLO microscopic observation of wrinkles versus group C (SKH-1 hairless mouse; group P, 0.05% applied to the skin, until the 8th week of UVB irradiation): wrinkles were relatively less formed compared to group C | SILFLO microscopic observation of wrinkles (SKH-1 hairless mouse; group R, 0.05% applied to the skin, by the 10th week of UVB irradiation): the wrinkles became thicker and the number of wrinkles increased | expression level of MMP-1 versus group C (MMP-1): significantly increased | expression level of MMP-13 versus group C (MMP-13): significantly increased
